{"source": "paper PMC4825019", "binders": {"B1": {"name": "synaptogyrin-3 (endogenous) (protein, UniProt Q8R191 1-229)", "chain": "MEGASFGAGRAGAAFDPVSFARRPQTLLRVVSWVFSIAVFGPIVNEGYVNSDSGPELRCVFNGNAGACRFGVVLGLGAFIACVAFLLLDVRFQQISSVRDRRRAVLLDLGFSGVWSFLWFVGFCFLTNQWQRTTPGPGTAQAGDAARAAIAFSFFSILSWVALTVKALQRFRLGTDMSLFATDQLGTGAAQAYPGYPVGSGVEGTETYQSPPFTETLDTSSKGYQVPAY"}}, "biological_target": "0N Tau (endogenous) (mouse (endogenous in C57BL/6 brain))", "test": "affinity purification with mass spectrometry; parallel IPs from 1 mg pre-cleaned brain lysate of 2-month-old C57BL/6 mice with pan-Tau (Dako Tau, M) or 0N-, 1N-, 2N-specific Tau antibodies on protein G-Sepharose, overnight at 4 °C, IP buffer 25 mM Tris-HCl pH 7.4, 150 mM NaCl, 1 mM EDTA, 1% Nonidet P-40, 5% glycerol; Dako IP from Tau KO lysate as negative control; TMT multiplexed quantitative LC-MS/MS; hit: at least 10% above the KO IP with p ≤0.05; preference: ratio at least 10% higher than for the other two isoforms", "note": "Results are given in words; binding and its absence hold for the method and conditions named. In cells and extracts the contact can be indirect. Here binding means that the protein was enriched with, or labelled near, the bait; the list need not be complete."}
{"binder": "B1", "values": [{"measurement": "binding", "value": "binds"}]}
